# Experimental data: PubChem BioAssay AID504444 (National Center for Advancing Translational Sciences (NCATS), 2011)
# In all, about 360,000 compounds went through this assay and about 7,500 (2.1%) were called active. This list was built around the results that the source calls inconclusive (neither active nor inactive); the mix of calls is not that of the screen. Calls come from the whole dose curve; as a rule, active = well fitted inhibition curve with a large enough effect; inconclusive = small, poorly fitted or top-dose-only effect, or effect the other way; inactive = flat fitted curve, though single readings scatter. A potency beside an inconclusive call is a rough fit, not a confirmed value.
# Assay: Nrf2 qHTS screen for inhibitors; note: nearly all actives have a fitted effect of over 60% in size
# Settings: A549 ARE-Fluc reporter, luciferase luminescence, 18-24 h; series mostly up to 46 µM
# In short: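 In this cell-based qHTS, ARE-driven firefly luciferase in A549 cells reports Nrf2 activity; the luminescent signal after BugLite lysis is the measured value, with a prior CellTiter-Fluor read for cell health.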
# Potency is the fitted concentration of half-maximal effect.
row,SMILES,Potency
1,COc1ccc2nc(SCC(=O)NCc3ccc(F)cc3)[nH]c2c1,"inconclusive: 8.2 µM [falling, partial curve, poor fit]"
2,CCCCNc1c(-c2ccc(OC)c(Sc3ccc(OC)cc3)c2)nc2ccccn12,active: 18.4 µM
3,C[C@]12C=CC(=O)C=C1CC[C@@H]1C2=CC[C@]2(C)[C@@H](C(=O)CN3CCN(c4cc(N5CCCC5)nc(N5CCCC5)n4)CC3)CC[C@@H]12,inactive
4,Fc1ccc(NC(=S)NCCN2CCOCC2)c(F)c1F,inactive
5,COc1ccc(NC(=O)CSc2nc3ccccc3c(=O)n2C)cc1,"inconclusive: 20.6 µM [falling, single point]"
6,CCCCNC(=O)CN1C(=O)c2c(c3ccccc3n2C)C1c1ccc(OC)cc1 (centres undefined),inactive
7,CCC(Oc1ccccc1)C(=O)Nc1nnc(C)s1 (centres undefined),inactive
8,CC1CCc2c(sc(NC(=O)c3cccs3)c2C(=O)O)C1 (centres undefined),"inconclusive: 3.66 µM [falling, full curve]"
9,Cc1cccc(C(=O)NNC(=O)c2cccc(C)c2)c1,inactive
10,Cc1cc(OCc2cc(C(=O)N(C)Cc3nonc3C)no2)cc(C)c1Cl,"inconclusive: 4.61 µM [falling, partial curve, poor fit]"
11,Cc1cc(C(=O)CN2C(=O)C(=O)N(Cc3ccccc3)C2=O)c(C)n1Cc1ccccc1,inactive
12,O=C(N/N=C(\c1ccccc1)c1ccccn1)c1ccccc1Cl,"inconclusive: 11.6 µM [falling, partial curve, poor fit]"
13,O=C(O)c1ccc(Oc2nc3ccccc3s2)cc1,"inconclusive: 5.8 µM [activator, full curve]"
14,Cc1ccccc1CS(=O)(=O)c1cnc2ccccc2n1,inactive
15,COc1ccc(-n2c(=S)[nH]c3cc(C(=O)Nc4cccc(C)c4)ccc3c2=O)cc1,inactive
16,CCOc1ccc(-c2nc(C#N)c(NC3CC3)o2)cc1,inactive
17,Cc1nnc(SCc2nnc(-c3ccccc3Br)o2)s1,"inconclusive: 16.4 µM [activator, partial curve]"
18,Cc1cccc(COCC(Cc2ccccc2)N2CCN(C(=O)c3cc(Cl)cc(Cl)c3)CCC2=O)c1 (centres undefined),"inconclusive: 29.1 µM [falling, single point]"
19,O=C(COc1ccc(Cl)cc1)NNC(=O)c1ccccn1,"inconclusive: 18.4 µM [falling, single point]"
20,O=C(C[C@H]1C[C@H](C(=O)N2CCOCC2)[C@@]2(CCC3CCCC3)c3[nH]c4cc(-c5ccco5)ccc4c3CCN2C1=O)NCc1ccco1,"inconclusive: 29.1 µM [falling, single point]"
21,Clc1ccc(Cn2ccc(-c3ccc4c(c3)OCO4)n2)cc1Cl,"inconclusive: 20.6 µM [falling, partial curve, poor fit]"
22,O=C(Cn1c(=O)n(Cc2ccc(C(=O)NCc3ccc4c(c3)OCO4)cc2)c(=O)c2ccccc21)Nc1ccc(F)cc1F,"inconclusive: 14.6 µM [falling, partial curve, poor fit]"

row,SMILES,Potency
1,CCc1ccc(NC(=O)c2cc(-c3ccco3)on2)cc1,"inconclusive: 23.1 µM [activator, single point]"
2,Cc1ccc(C(=O)Nc2sc3c(c2C(=O)O)CCCCC3)o1,"inconclusive: 8.2 µM [falling, partial curve]"
3,O=C(CC1CCCCC1)NCc1ccc(Cl)cc1,"inconclusive: 16.4 µM [activator, single point]"
4,CN1CCc2nc(NC(=O)COc3ccc(C#N)cc3)sc2C1,"inconclusive: 1.84 µM [activator, partial curve, poor fit]"
5,O=C(CSc1nnc(CNC(=O)c2ccccc2F)o1)NC1CCCCC1,inactive
6,COc1ccc(C(=S)N2CCN(S(=O)(=O)c3ccccc3)CC2)cc1,"inconclusive: 29.1 µM [falling, single point]"
7,CC(=O)[C@@]1(O)CC[C@H]2[C@@H]3CCC4=CC(=O)CC[C@]4(C)[C@H]3[C@@H](O)C[C@@]21C,"inconclusive: 0.651 µM [falling, partial curve]"
8,O=C(NCCc1ccc(Cl)cc1)c1ccc2c(c1)OCO2,"inconclusive: 0.58 µM [activator, full curve, poor fit]"
9,C/C(=N/NC(=O)c1cc(C(C)C)[nH]n1)c1cccs1,"inconclusive: 0.58 µM [activator, full curve]"
10,CCCCCNc1nc2ccccc2nc1NS(=O)(=O)c1cccs1,"inconclusive: 10.3 µM [falling, partial curve, poor fit]"
11,COc1ccc(CNc2nc(Cl)c(C#N)s2)cc1,"inconclusive: 23.1 µM [activator, partial curve]"
12,CCN(c1ccccc1C)S(=O)(=O)c1nnc(NC(=O)c2ccco2)s1,"inconclusive: 2.59 µM [activator, full curve]"
13,COC(=O)c1cccc(NC(=O)Nc2ccc(Cl)c(Cl)c2)c1,"inconclusive: 29.1 µM [falling, single point]"
14,O=C(Cc1ccc(F)cc1)Nc1cccc2cccnc12,inactive
15,COC(=O)CC1C(=O)NCCN1C(=O)c1cc(OC)c(OC)cc1OC (centres undefined),inactive
16,C/C=C(/C)C(=O)OC(C)(C)[C@@H]1Cc2c(ccc3ccc(=O)oc23)O1,"inconclusive: 14.6 µM [falling, partial curve, poor fit]"
17,Cn1c(SCc2ccccc2)nc(N)c(N=O)c1=O,inactive
18,Cc1ccc(C2(c3ccc(C)cc3)CC2C(=O)NC(C)C)cc1 (centres undefined),"inconclusive: 4.11 µM [falling, partial curve, poor fit]"
19,CCCS(=O)(=O)c1ncc(Cl)c(C(=O)Nc2c(C(=O)Nc3ccccc3)oc3ccccc23)n1,"inconclusive: 20.6 µM [falling, single point]"
20,O=C(Nc1cnn(Cc2ccc(F)cc2)c1)c1cc(-c2cccs2)on1,"inconclusive: 29.1 µM [falling, single point]"
21,O=C(CCS(=O)(=O)c1ccc2c(c1)NC(=O)CO2)NCc1ccccc1,"inconclusive: 7.31 µM [activator, partial curve]"
22,CC(=O)Nc1cc(C(=O)OCC(=O)c2ccc(Cl)cc2Cl)ccc1C,"inconclusive: 32.6 µM [falling, single point]"

# Quoted from the results shown (2 entries):
row,SMILES,Potency
3,O=C(CC1CCCCC1)NCc1ccc(Cl)cc1,"inconclusive: 16.4 µM [activator, single point]"
4,CN1CCc2nc(NC(=O)COc3ccc(C#N)cc3)sc2C1,"inconclusive: 1.84 µM [activator, partial curve, poor fit]"
